{
  "sequences": {"note": "By UniProt entry, the sequences of proteins in these tests, tags left out.", "UniProt Q8TEK3": "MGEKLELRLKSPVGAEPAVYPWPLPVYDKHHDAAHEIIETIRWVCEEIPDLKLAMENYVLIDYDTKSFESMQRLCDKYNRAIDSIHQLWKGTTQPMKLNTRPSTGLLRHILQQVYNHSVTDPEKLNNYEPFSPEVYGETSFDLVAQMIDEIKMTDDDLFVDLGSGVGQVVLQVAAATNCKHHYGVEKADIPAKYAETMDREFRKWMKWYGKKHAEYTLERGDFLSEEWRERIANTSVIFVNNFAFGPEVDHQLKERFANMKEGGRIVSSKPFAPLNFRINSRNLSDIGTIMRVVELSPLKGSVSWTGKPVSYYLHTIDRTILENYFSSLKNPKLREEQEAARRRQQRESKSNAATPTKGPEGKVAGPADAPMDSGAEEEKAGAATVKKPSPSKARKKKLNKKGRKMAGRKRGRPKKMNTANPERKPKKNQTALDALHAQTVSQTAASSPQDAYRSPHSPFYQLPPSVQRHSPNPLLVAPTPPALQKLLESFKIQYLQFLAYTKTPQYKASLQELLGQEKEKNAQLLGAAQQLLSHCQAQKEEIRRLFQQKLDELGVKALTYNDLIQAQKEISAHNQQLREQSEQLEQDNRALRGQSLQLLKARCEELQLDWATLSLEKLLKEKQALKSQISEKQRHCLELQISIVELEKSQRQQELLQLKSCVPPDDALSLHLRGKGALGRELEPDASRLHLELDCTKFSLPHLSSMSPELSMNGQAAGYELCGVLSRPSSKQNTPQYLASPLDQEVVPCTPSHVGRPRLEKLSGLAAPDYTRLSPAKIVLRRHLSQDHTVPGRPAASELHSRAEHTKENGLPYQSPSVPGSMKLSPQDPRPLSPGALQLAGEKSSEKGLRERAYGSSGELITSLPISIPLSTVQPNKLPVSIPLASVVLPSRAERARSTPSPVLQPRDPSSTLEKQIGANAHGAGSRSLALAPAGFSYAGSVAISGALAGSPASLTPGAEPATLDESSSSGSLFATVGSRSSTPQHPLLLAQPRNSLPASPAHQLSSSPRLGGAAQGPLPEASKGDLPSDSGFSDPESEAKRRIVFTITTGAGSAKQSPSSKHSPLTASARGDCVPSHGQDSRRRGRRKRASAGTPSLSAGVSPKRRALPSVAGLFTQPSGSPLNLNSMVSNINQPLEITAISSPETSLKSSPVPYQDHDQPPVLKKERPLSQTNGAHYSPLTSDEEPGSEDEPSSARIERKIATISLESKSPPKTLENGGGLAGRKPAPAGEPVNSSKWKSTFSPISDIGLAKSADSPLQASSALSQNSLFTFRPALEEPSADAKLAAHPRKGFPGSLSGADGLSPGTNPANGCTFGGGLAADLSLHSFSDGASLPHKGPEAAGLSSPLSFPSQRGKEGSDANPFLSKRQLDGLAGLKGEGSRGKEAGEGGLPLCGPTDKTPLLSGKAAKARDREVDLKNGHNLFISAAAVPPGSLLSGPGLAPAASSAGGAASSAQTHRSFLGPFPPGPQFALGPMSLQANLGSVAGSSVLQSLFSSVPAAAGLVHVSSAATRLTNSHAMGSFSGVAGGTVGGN"},
  "source": "paper PMC10457349",
  "binders": {"B1": {"name": "Enl, endogenous in mouse ES cells (protein, UniProt Q9ERL0 1-547)", "chain": "MDNQCTVQVKLELGHRAQLRKKPTTEGFTHDWMVFVRGPEQCDIQHFVEKVIFRLHDSFPKPKRVCKEPPYKVEESGYAGFIMLIEVYFKNKEEPRKVCFTYDLFLNLEGNPPVNHLRCEKLTFNNPTTEFRCKLLMAGGVMVMPEGADTVSRPSPDYPMLPTIPLSAFSDPKKNKPSHGSKDANKESGKASKPHKVAREHRERPRKDSESRSCSKEPEREPKSAKDAARKLPKEEKAPVPKAAFKEPKMALKETKLESLSPKGVPQPPTLPKASSKRPAATDSPKLSAKKPKKSGSKGTRRAPGTSPRASSFPDKKVARDKNSKGDKGKAESEPREAKRTLQTEDSNSEDEASFRSESAQSSPANASSSSDSSSDSDFEPSQNHSQGPLRSMVEDLQSEGSDEDDSSSGEENTGKANPGRESRLSFSDSESDNSADSCLPGREPLPPQKPPPPSSKVSGRRSPEPCSKPEKMLKKATYDKAYTDELVELHRRLMALRERNVLQQIVNLIEETGHFNVTNTTFDFDLFSLDESTVRKLQSCLEAVAT"}},
  "target": "TetR fusion of DOT1L (UniProt Q8TEK3)",
  "test": "TetR recruitment to a TetO array, ChIP-qPCR; mouse ES cells with a TetO array stably expressing FS2-TetR fusion proteins; ChIP-qPCR for endogenous proteins at the TetO array; negative control 1 µg/ml doxycycline for 6 h",
  "note": "Results are given in words; binding and its absence hold for the method and conditions named. Some entries that bind do so weakly or less than the wild type.",
  "data": [
    {"binder": "B1", "values": [
      {"measurement": "binding", "result": "binds"}
    ]}
  ]
}
